The results in this text go back to article PMC8310357.

The target of this test is Erylysin A (Pleurotus eryngii) (UniProt D0FZZ2). In words: cryo-electron microscopy imaging of proteins on vesicles (no reconstruction); LUVs 0.5 mg/mL of CPE/POPC/cholesterol 5/47.5/47.5 (mol/mol/mol) in vesicle buffer (20 mM Tris, pH 7.5, 140 mM NaCl, 1 mM EDTA); vesicles incubated with the aegerolysin 30 min at room temperature, then PlyB added for 30 min; OlyA6 3.64 uM with PlyB 1.67 uM, or EryA 25 uM with PlyB 2 uM; oligomerisation required the presence of membranes; both purified.

These are yes or no findings as the source states them, for the method shown. Binding can be weak; no strength is given.

B1: Δ48PlyB (pleurotolysin B) (protein, UniProt Q5W9E8 49-523)
chain: SQAGDTLNDVIQDPTRRNKLINDNNLLKGIIMGRDGPVPSSRELIVRPDTLRAIINNRATIETTTMEAEFTETLMESNYNSASVKVSAPFITANSEYSESSSFKNTETEKSMYTSSRYLFPQGRIDFTTPDSGFDDVIKLSPQFTSGVQAALAKATGTEKREALQNLFQEYGHVFRTKVHIGGVLSAHTMETFSRSENETEVKQDVKAGLEGAVKGWGGGATAGHGNTQGTITTSQNRKLNVKYIVNGGDYTKIQNTEEWVASTNQSEHWRVIEVTEVTAVADLLPQPIRGQVKDLLKPLLGKWVDVEKVPGLESLPVSVYRPKGAIPAGWFWLGDTADASKALLVKPTLPARSGRNPALTSLHQGSGMTEQPFVDLPQYQYLSTYFGSFAHDTPPGSTLRGLRPDHVLPGRYEMHGDTISTAVYVTRPVDVPFPEDECFDLKSLVRVKLPGSGNPPKPRSALKKSMVLFDSGEK
Turning to B1, the binding entry is on record as “binds”.
